In PubChem BioAssay AID504467 (National Center for Advancing Translational Sciences (NCATS), 2011):
The whole screen tested about 330,000 compounds, of which about 7,700 (2.3%) were called active. Inconclusive results, whose numbers are uncertain, are shown with a selection of clear calls. Calls come from the whole dose curve; as a rule, active = well fitted inhibition curve with a large enough effect; inconclusive = small, poorly fitted or top-dose-only effect, or effect the other way; inactive = flat fitted curve, though single readings scatter. Potencies beside an inconclusive call are fits to weak or partial responses and may not hold up.

Test: qHTS screen for small molecules that inhibit ELG1-dependent DNA repair in human embryonic kidney (HEK293T) cells expressing luciferase-tagged ELG1; note: nearly all actives have a fitted effect of over 55% in size
Conditions: HEK293T ELG1-luciferase reporter, luminescence, 16 h, DNA damage induced by 5-fluorouridine; series mostly up to 46.1 µM
Procedure, shortened: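 In this reporter screen, reduction of luminescence relative to DMSO vehicle indicated activity. Compounds and 5-fluorouridine were added together to 2,000 cells per well, incubated for 16 hr at 37 °C, then developed with ONE-Glo.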
Potency is the fitted concentration of half-maximal effect.

SMILES	Potency
Cc1nc(-c2ccc(F)cc2)c(CC(=O)Nc2cccc(S(=O)(=O)N3CCOCC3)c2)s1	inactive
CC(=O)Nc1cccc(C(=O)N/N=C/c2ccccc2F)c1	inconclusive: 2.59 µM [activator, partial curve]
CC1CCN(C(=O)CSC2=NS(=O)(=O)c3cc(F)ccc3N2)CC1	inconclusive: 9.2 µM [activator, partial curve, poor fit]
CCc1ccc(CN2CCC(C(=O)Nc3cccc(-c4nnc(C)s4)c3)CC2)o1	inconclusive: 13 µM [inhibitor, partial curve]
O=C(Nc1ccc(C(=O)OC2CCCCC2)cc1)c1ccncc1	inconclusive: 10.3 µM [inhibitor, partial curve]
CN(c1ccccc1)S(=O)(=O)c1cccc(NC(=O)Cc2ccc(Cl)cc2)c1	inconclusive: 32.6 µM [inhibitor, single point]
O=C(NC(=S)NCc1nc2ccccc2[nH]1)c1ccc(F)cc1	inconclusive: 18.3 µM [activator, single point]
CCC(C)(C(=O)NC1CCCC1)N(C(=O)CC1NC(=O)NC1=O)c1c(C)n(C)n(-c2ccccc2)c1=O (stereo not drawn)	inconclusive: 0.184 µM [activator, full curve]
COc1cccc(C2=NN(C(=O)c3cccs3)C(O)(C(F)(F)F)C2)c1 (stereo not drawn)	inconclusive: 20.6 µM [inhibitor, single point]
COc1ccc(NS(=O)(=O)c2ccc(C(=O)N3CCC(C)CC3)cc2)cc1	inconclusive: 5.17 µM [inhibitor, partial curve, poor fit]
CCC(C)[C@H](NC(=O)N1CCn2c1nc1ccccc12)C(=O)NCc1ccc(OC)cc1 (stereo partly drawn)	inactive
Cc1cccc(NC(=O)[C@H](Cc2ccccc2)NC(=O)OCc2ccccc2)c1	inactive
OCC1(Cc2ccc(F)cc2)CCCN(CCCC(F)(F)F)C1 (stereo not drawn)	inactive
CCOc1ccc(CNC(=O)Nc2ccccc2)cc1	inconclusive: 23.1 µM [activator, partial curve]
CCCOc1c(Cl)cc(C(=O)Nc2ccc3c(c2)OCO3)cc1OCC	inconclusive: 29.1 µM [inhibitor, single point]
CCOCCCNC(=S)N1CCN(c2nc(-c3ccc(F)cc3)cs2)CC1	inconclusive: 9.2 µM [inhibitor, partial curve]
O=C(CC1SC(N2CCCC2)=NC1=O)Nc1ccc(C(=O)NCc2ccc(F)cc2)cc1 (stereo not drawn)	inactive
CSc1ncccc1C(=O)OCC(=O)NC12CC3CC(CC(C3)C1)C2	inactive
COc1ccc(OC)c(C(=O)NC(CC(N)=O)c2ccc(N3CCC(Cc4ccccc4)CC3)c([N+](=O)[O-])c2)c1 (stereo not drawn)	inactive
COc1ccc2nc(C)cc(N3CC(C)OC(C)C3)c2c1 (stereo not drawn)	inconclusive: 23.1 µM [inhibitor, single point]
Cc1ccc2c(c1)COc1c3ccc(C(=O)N[C@@H](C)CO)cc3nn1-2	inconclusive: 2.59 µM [activator, full curve]
O=C(Nc1ccc2ncccc2c1)c1cccc(Br)c1	inconclusive: 14.6 µM [activator, partial curve]
COc1ccc(C(=O)N(Cc2nc(-c3ccc(C)cc3)no2)C2CCCCC2)cc1OC	inconclusive: 20.6 µM [inhibitor, partial curve]
Fc1ccc(CN2CCN(c3ncnc4scc(-c5ccccc5)c34)CC2)cc1	inconclusive: 29.1 µM [inhibitor, single point]
CCOc1cc(C#N)c(NC(=O)c2ccco2)cc1OCC	inconclusive: 6.51 µM [inhibitor, single point]

SMILES	Potency
COc1ccc(CCN2C(=S)N(C)C(=O)C2CC(=O)Nc2ccc(F)cc2)cc1 (stereo not drawn)	inconclusive: 29.1 µM [inhibitor, single point]
CC1CC(C)CN(CCCNC(=O)C2CCN(c3ncnc4c3sc3cccc(F)c34)CC2)C1 (stereo not drawn)	inconclusive: 29.1 µM [activator, partial curve, poor fit]
Cc1ccccc1Nc1scc(-c2ccc(Cl)cc2)[n+]1-c1ccccc1C	inconclusive: 16.4 µM [inhibitor, single point]
CC(=O)C1C(c2cccc(F)c2)NC(=O)NC1(O)C(F)(F)F (stereo not drawn)	inconclusive: 0.58 µM [inhibitor, single point]
CSc1nnc(CSCc2ccc(Cl)cc2Cl)n1-c1ccccc1	inactive
COc1ccccc1N1CCN(CCOc2c(OC)cccc2OC)CC1	inactive
Cn1c(N)c(C(=O)COC(=O)CCC(=O)c2cccs2)c(=O)n(C)c1=O	inconclusive: 29.1 µM [inhibitor, single point]
C#CCN(C(=O)c1ccc(OC2CCN(Cc3ccccn3)CC2)cc1)C1CCCCC1	inactive
C=CCNC(=S)NNC(=O)C(CCCC)CC(O)COCC(C)C (stereo not drawn)	inconclusive: 5.17 µM [inhibitor, partial curve, poor fit]
CCOc1ccc2nc(NC(=O)CSc3ccc(Cl)cc3)sc2c1	inactive
CC(C)Cc1nnc(NC(=O)CCC(=O)NCc2ccccc2Cl)s1	inactive
OC(CNCc1ccccc1)COc1ccccc1 (stereo not drawn)	inconclusive: 2.82 µM [activator, partial curve, poor fit]
N#CC1=C(SCC(=O)c2ccc(Br)cc2)NC2=C(C(=O)CCC2)C1c1ccco1 (stereo not drawn)	active: 13 µM
COc1cc2cc(CN(Cc3cccs3)C(=S)Nc3ccccc3)c(=O)[nH]c2cc1OC	active: 8.2 µM
O=S(=O)(Nc1cccc(-c2nnco2)c1)c1ccc(Cl)cc1	inconclusive: 23.1 µM [inhibitor, partial curve]
CC1CCN(S(=O)(=O)c2cn(CC(=O)Nc3ccc(C#N)cc3)cn2)CC1	inactive
O=C(O)CCCC(=O)Nc1ccc(C(=O)N2CCCCC2)c(Cl)c1	inactive
O=C(c1ccccc1)c1ccc(OCCCN2CCCCC2)cc1	inactive
CCN(C[C@H]1N[C@@](C)(C(=O)OC)[C@H]2C(=O)N(C)C(=O)[C@@H]12)C(=O)Nc1ccccc1	inactive
COC(=O)c1ccccc1NC(=O)CN1CCC(NC(=O)c2ccc(C)cc2)CC1	active: 16.4 µM
CCC/C=N/Nc1nc2ccccc2s1	inconclusive: 16.4 µM [activator, partial curve]
O=C1C[C@@H](c2ccc(O[C@@H]3O[C@H](CO)[C@@H](O)[C@H](O)[C@H]3O)cc2)Oc2cc(O)ccc21	inconclusive: 25.9 µM [activator, single point]
C=CCc1cccc2cc(C(=O)O)c(=O)oc12	inactive
Cc1cccnc1NC(=O)CNC(=O)c1ccccc1	inconclusive: 20.6 µM [activator, single point]
CC1=CC(=C(C#N)C#N)C=C(C)N1Cc1ccccc1	inconclusive: 18.3 µM [activator, partial curve, poor fit]

Molecules listed so far that have a thiophene ring, fused or not:
SMILES	Potency
COc1cccc(C2=NN(C(=O)c3cccs3)C(O)(C(F)(F)F)C2)c1 (stereo not drawn)	inconclusive: 20.6 µM [inhibitor, single point]
Fc1ccc(CN2CCN(c3ncnc4scc(-c5ccccc5)c34)CC2)cc1	inconclusive: 29.1 µM [inhibitor, single point]
CC1CC(C)CN(CCCNC(=O)C2CCN(c3ncnc4c3sc3cccc(F)c34)CC2)C1 (stereo not drawn)	inconclusive: 29.1 µM [activator, partial curve, poor fit]
Cn1c(N)c(C(=O)COC(=O)CCC(=O)c2cccs2)c(=O)n(C)c1=O	inconclusive: 29.1 µM [inhibitor, single point]
COc1cc2cc(CN(Cc3cccs3)C(=S)Nc3ccccc3)c(=O)[nH]c2cc1OC	active: 8.2 µM

Following part.

SMILES	Potency
COc1ccc(Br)cc1CNC(=O)C1CCN(S(=O)(=O)N2CCCCC2)CC1	inconclusive: 23.1 µM [inhibitor, single point]
CCC(C)NC(=O)Cn1c(COc2ccc(Cl)cc2Cl)nc2ccccc21 (stereo not drawn)	inconclusive: 18.4 µM [activator, partial curve]
CCC1CCCCN1S(=O)(=O)c1ccc(C(=O)Nc2nnc(-c3cccs3)o2)cc1 (stereo not drawn)	inconclusive: 7.31 µM [inhibitor, partial curve]
Cc1c(Cl)cccc1NC(=S)N1CCN(Cc2ccc3c(c2)OCO3)CC1	inactive
Cc1[nH]c2ccc(C(=O)N3CCC(C(N)=O)CC3)cc2c1C	inconclusive: 4.11 µM [activator, partial curve, poor fit]
CO/N=C/C(=N\Nc1cc(OC)cc(OC)c1)C(=O)c1ccccc1	inconclusive: 20.6 µM [inhibitor, single point]
CCOC(=O)c1cc2c(=O)n3ccccc3nc2n(C(C)C)c1=NC(=O)c1c(-c2c(F)cccc2Cl)noc1C	active: 5.8 µM
Cc1ccc(S(=O)(=O)C2(C(=O)N3CCCC(C)C3)CC2)cc1 (stereo not drawn)	inactive
COc1ccc(Cl)cc1-c1nc(-c2ccncc2)no1	inconclusive: 20.6 µM [activator, single point]
Cc1cc2cc3c(cc2nc1SCc1ccccn1)OCCO3	inconclusive: 23.1 µM [activator, single point]
O=C(NCCSc1ccc(Cl)cc1)c1ccco1	inactive
O=C(NC1CCCCCCC1)c1ccccc1O	inconclusive: 14.6 µM [activator, partial curve]
O=C(O)c1cccc(N2C(=O)c3ccc(Oc4ccc(Cl)cc4)cc3C2=O)c1	inactive
CCCOc1ccc(N2C(=O)CC(N3CCC(C(=O)OCC)CC3)C2=O)cc1 (stereo not drawn)	inactive
O=C1Nc2ccccc2/C1=N\N=C\c1ccc(O)c(O)c1	inconclusive: 10.3 µM [activator, partial curve]
Cc1cccc(C(=O)Nc2nsc(N)n2)c1	inactive
CC(=O)Nc1ccc(NC(=O)CCN2C(=O)c3ccccc3C2=O)cc1	inactive
Cc1cc(C)cc(C(=O)NCC(=O)OCC(=O)c2cc(C)n(CC(F)(F)F)c2C)c1	inactive
FC(F)(F)c1nc2ccccc2c2nc3ccccc3n12	inconclusive: 29.1 µM [activator, single point]
NNC(=O)c1ccccc1OCCOc1ccccc1	inactive
Cc1ccc(-c2cc(C(=O)NCCN3CCOCC3)no2)cc1	inactive
CCn1c(O)c(C=Nc2ccccc2)n(-c2ccccc2)c1=S	inactive
CN(C(=O)CSc1nc(-c2ccccc2)c(-c2ccccc2)o1)C1CCS(=O)(=O)C1 (stereo not drawn)	inconclusive: 23.1 µM [inhibitor, partial curve]
